According to PMC6057467:
Results are given in words; binding and its absence hold for the method and conditions named.

Experiments:
[1] = molecular target: human Acinus RNA recognition motif domain (AcRRM) (human) (UniProt Q9UKV3); experiment: SEC; Superdex 75 10/300 GL, 50 mM Hepes-NaOH pH 8, 100 mM NaCl, reducing conditions (AcRRM in 1 mM or 10 mM DTT, column with 1 mM DTT); both purified
[2] = molecular target: human Acinus RNA recognition motif domain (AcRRM) (human) (UniProt Q9UKV3); experiment: crystal structure; X-ray, 1.65 Å, space group P212121, two monomers in the asymmetric unit linked by a C1083-C1083 disulfide bond; crystals from 0.2 M ammonium acetate, 100 mM Tris-HCl pH 8.5, 25% PEG 3,350, 18 °C; both purified

- binding [2]: no binding
B1: human Acinus RNA recognition motif domain (AcRRM) (domain or fragment, UniProt Q9UKV3 1008-1100)
chain: GSGKISNIVHISNLVRPFTLGQLKELLGRTGTLVEEAFWIDKIKSHCFVTYSTVEEAVATRTALHGVKWPQSNPKFLCADYAEQDELDYHRGLLV
- binding [1]: no binding (condition: in reducing conditions (DTT))
